Measurements published in patent publication US20080268507.
For part of these data: The comparison behind a weaker result is the experiment's own reference, which may not be listed here. Tags and fusion partners may be left off the protein sequences shown. For part of these data: Construct, isoform or probe ends are uncertain for at least one entry.

Legend:
[1] = test system: T1, M.CviPII (Chlorella virus NYs-1); test: activity in cells; conditions: bisulfite sequencing, protein in cells, protein details: expressed in E. coli ER2502 from pUC-cviPIIM, only the site is given
T1 sequence (limits assumed): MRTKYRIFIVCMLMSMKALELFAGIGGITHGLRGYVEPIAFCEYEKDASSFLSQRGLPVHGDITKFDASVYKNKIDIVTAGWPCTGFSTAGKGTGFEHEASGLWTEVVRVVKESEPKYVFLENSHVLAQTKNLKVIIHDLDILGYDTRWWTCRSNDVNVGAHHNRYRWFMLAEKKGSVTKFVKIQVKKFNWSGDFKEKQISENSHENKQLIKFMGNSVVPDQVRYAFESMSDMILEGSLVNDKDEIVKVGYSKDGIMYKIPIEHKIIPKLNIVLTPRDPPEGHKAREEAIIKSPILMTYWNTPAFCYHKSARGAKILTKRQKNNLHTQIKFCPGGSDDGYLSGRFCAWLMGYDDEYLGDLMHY

[2] = test system: T2, Nt.CviPII (His+) (Chlorella virus NYs-1); test: enzyme reaction in vitro; conditions: 37 C 1 h, purified recombinant protein, protein details: 6xHis, expressed in E. coli ER2683
T2 sequence: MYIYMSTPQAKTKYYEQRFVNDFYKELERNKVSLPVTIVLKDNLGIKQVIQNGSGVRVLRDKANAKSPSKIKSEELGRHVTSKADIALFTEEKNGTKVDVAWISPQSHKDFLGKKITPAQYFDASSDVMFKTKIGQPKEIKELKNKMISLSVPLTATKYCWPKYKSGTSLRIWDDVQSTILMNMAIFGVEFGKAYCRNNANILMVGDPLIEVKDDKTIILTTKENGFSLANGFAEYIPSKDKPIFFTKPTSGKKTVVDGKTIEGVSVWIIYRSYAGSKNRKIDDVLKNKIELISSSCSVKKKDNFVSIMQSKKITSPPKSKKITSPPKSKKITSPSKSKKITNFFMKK

## ATGGCCATGT (double strand) [CCA methylation site in pUC-cviPIIM]
[1]; first C methylated
  activity on this sequence: active

## CCTGATCGGGAACTA (double strand) [CCCG methylation site in pUC-cviPIIM]
[1]; first two Cs methylated (relaxed specificity, overexpression)
  activity on this sequence: active

## CGATACGTCGTAAGATACTTGCGGCGAATGCAAGCGATAAGCTTGGCGTAATCATGGCCC (double strand) [CCG substrate]
[2]; nicked 5' of first C, run-off sequencing
  activity on this sequence: active

## GAACCAAAATA (double strand) [CCAA methylation site in pUC-cviPIIM]
[1]; first and second C methylated (relaxed specificity, overexpression)
  activity on this sequence: active

## GATACGTCGTAAGATCTTGAGGCGAATGAGCGATAAGCTTGGCGTAATCATGGACATAGCTG (double strand) [CCT substrate]
[2]; only a small amount cleaved
  activity on this sequence: less active

## TACGGCCGGG (double strand) [CCG methylation site in pUC-cviPIIM]
[1]; first C methylated
  activity on this sequence: active
